# Results reported in US20040171041.
# Sequences of proteins named here, by UniProt entry; tags and fusion partners are left off. A change or cut given only in a name is not applied to a line headed by its entry.
# UniProt Q859P9: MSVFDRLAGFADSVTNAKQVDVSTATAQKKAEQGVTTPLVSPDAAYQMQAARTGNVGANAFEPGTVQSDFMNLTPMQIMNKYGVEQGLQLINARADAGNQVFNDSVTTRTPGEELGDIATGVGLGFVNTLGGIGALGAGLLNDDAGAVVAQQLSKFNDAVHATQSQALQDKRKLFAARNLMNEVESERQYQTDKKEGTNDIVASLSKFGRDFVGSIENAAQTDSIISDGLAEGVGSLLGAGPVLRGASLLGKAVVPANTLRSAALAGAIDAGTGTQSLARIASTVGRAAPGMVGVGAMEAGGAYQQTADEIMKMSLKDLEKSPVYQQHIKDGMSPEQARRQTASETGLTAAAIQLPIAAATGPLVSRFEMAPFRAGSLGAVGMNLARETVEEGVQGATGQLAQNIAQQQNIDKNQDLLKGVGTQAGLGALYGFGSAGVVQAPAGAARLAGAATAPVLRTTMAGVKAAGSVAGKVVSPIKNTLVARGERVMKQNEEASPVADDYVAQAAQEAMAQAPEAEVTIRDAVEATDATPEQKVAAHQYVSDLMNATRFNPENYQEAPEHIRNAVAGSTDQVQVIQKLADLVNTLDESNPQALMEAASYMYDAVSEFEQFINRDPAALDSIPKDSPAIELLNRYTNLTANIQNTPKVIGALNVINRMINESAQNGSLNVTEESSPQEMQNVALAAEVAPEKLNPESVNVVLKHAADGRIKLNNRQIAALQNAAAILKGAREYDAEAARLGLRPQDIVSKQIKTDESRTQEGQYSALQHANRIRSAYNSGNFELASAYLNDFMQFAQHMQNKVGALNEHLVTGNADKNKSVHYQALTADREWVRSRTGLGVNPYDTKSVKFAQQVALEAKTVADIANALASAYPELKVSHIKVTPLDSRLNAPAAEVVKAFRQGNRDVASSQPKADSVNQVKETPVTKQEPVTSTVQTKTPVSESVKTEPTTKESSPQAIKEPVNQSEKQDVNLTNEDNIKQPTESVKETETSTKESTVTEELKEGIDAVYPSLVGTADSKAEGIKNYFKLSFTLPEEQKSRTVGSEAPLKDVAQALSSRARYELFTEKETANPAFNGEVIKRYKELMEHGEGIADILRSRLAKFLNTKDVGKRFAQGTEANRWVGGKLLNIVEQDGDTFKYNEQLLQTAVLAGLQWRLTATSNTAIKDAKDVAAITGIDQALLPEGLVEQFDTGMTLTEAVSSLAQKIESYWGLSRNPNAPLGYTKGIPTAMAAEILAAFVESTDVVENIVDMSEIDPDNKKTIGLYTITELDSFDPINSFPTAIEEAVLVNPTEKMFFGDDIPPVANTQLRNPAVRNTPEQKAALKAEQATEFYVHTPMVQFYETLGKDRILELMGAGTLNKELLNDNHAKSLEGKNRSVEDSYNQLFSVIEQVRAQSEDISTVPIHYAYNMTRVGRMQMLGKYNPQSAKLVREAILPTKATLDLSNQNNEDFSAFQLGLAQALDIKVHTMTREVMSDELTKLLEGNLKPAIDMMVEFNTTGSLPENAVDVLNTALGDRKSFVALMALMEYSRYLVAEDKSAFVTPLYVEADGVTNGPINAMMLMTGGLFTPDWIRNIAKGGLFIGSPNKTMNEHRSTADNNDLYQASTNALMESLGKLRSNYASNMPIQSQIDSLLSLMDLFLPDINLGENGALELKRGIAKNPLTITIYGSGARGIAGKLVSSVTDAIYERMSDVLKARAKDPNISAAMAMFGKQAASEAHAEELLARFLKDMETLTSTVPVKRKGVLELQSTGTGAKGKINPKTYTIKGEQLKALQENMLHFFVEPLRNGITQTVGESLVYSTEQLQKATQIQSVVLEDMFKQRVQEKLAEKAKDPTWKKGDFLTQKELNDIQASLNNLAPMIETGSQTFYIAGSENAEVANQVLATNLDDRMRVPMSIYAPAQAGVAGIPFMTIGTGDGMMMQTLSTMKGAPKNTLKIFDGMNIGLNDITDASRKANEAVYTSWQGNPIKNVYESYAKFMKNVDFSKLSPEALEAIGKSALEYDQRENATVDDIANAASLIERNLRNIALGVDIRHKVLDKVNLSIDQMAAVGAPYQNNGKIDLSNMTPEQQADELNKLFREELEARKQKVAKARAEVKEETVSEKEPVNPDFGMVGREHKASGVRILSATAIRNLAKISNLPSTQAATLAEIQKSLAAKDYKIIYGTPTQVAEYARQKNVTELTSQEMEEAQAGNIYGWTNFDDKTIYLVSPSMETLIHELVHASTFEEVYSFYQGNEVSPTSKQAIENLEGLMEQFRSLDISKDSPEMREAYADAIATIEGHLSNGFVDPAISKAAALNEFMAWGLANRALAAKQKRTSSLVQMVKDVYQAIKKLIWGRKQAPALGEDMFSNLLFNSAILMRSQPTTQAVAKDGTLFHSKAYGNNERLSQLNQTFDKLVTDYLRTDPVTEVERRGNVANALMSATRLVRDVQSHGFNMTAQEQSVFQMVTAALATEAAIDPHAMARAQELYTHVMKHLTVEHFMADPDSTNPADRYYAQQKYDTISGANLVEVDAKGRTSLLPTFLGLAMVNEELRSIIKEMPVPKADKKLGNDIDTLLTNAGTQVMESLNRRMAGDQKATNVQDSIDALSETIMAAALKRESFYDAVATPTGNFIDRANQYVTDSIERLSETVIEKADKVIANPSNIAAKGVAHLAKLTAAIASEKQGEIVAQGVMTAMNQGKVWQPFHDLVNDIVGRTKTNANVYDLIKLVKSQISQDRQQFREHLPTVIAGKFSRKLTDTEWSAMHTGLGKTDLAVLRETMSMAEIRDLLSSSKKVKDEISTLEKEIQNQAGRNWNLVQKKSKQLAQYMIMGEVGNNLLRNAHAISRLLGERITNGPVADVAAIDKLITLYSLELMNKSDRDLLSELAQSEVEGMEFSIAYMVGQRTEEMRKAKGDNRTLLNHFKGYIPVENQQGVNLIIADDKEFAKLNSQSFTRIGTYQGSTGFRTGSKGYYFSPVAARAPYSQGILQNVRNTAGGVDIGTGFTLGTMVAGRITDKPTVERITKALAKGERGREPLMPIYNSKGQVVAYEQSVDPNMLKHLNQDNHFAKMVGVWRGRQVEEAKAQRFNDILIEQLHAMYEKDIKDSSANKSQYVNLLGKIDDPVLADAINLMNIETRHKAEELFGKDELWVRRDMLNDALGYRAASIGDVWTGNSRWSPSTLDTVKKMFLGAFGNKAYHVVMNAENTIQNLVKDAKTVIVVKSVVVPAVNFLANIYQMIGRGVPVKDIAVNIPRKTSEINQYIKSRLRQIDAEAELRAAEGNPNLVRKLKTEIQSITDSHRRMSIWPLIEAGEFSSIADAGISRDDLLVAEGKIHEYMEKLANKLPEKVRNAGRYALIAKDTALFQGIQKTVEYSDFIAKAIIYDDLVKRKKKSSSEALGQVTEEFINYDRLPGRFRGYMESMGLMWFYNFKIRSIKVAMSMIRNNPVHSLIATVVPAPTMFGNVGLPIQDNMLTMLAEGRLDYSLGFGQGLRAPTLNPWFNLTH
# Biological target: mini-vRNAP K670A K670A (mini-vRNAP numbering, residue 707 of SEQ 6) (Bacteriophage N4) (UniProt Q859P9)
# Experiment: binding assay
# Conditions: purified recombinant protein, protein details: N-terminal His6, label: 32P end, single-stranded DNA
sequence,measurement,setting,value
TCCAAAAGAAGCGGAGCTTC [P2 20-mer 5-Iodo-dU at +3],binding result,"5-Iodo-dU at +3, UV crosslinking as wild type, variant of wild-type P2 promoter 20-mer",binds
TCCAAAAGAAGCGGAGCTTC [P2 20-mer 5-Iodo-dU at -11],binding result,"5-Iodo-dU at -11 (loop centre), UV crosslinking as wild type, variant of wild-type P2 promoter 20-mer",binds
TCCAAAAGAAGCGGAGCTTC [wild-type P2 promoter 20-mer],binding result,wild-type affinity,binds

# Construct, isoform or probe ends are uncertain for at least one entry.
